Data as given in PMC3445477.
No constants are given. Whether binding was seen depends on the method and setting. Some results given as binding are weak or reduced against the parent protein; the word gives no strength.

Columns and labels:
[1] = target: T1, SrfH Asp103 (srfH allele of S. Typhimurium SL1344) (Salmonella enterica serovar Typhimurium SL1344) (UniProt Q8ZQ79); test: two-hybrid; Hybrid Hunter yeast two-hybrid kit (Invitrogen); SrfH fused to LexA as bait, full-length TRIP6 as prey; beta-galactosidase activity as read-out, cultures grown at 30°C
T1 sequence: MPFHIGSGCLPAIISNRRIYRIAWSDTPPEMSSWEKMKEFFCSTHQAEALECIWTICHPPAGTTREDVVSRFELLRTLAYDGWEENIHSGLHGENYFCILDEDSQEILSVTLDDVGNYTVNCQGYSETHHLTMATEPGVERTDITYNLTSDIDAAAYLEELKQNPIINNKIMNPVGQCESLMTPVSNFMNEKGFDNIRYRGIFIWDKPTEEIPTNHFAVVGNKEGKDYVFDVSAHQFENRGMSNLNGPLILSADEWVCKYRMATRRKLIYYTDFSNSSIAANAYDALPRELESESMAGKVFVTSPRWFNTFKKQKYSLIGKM

[2] = target: SrfH Gly103 (srfH allele of S. Typhimurium 14028s) (Salmonella enterica serovar Typhimurium 14028s) (UniProt Q8ZQ79); test: as above

B1: TRIP6 (protein, UniProt Q15654 1-476)
chain: MSGPTWLPPKQPEPARAPQGRAIPRGTPGPPPAHGAALQPHPRVNFCPLPSEQCYQAPGGPEDRGPAWVGSHGVLQHTQGLPADRGGLRPGSLDAEIDLLSSTLAELNGGRGHASRRPDRQAYEPPPPPAYRTGSLKPNPASPLPASPYGGPTPASYTTASTPAGPAFPVQVKVAQPVRGCGPPRRGASQASGPLPGPHFPLPGRGEVWGPGYRSQREPGPGAKEEAAGVSGPAGRGRGGEHGPQVPLSQPPEDELDRLTKKLVHDMNHPPSGEYFGQCGGCGEDVVGDGAGVVALDRVFHVGCFVCSTCRAQLRGQHFYAVERRAYCEGCYVATLEKCATCSQPILDRILRAMGKAYHPGCFTCVVCHRGLDGIPFTVDATSQIHCIEDFHRKFAPRCSVCGGAIMPEPGQEETVRIVALDRSFHIGCYKCEECGLLLSSEGECQGCYPLDGHILCKACSAWRIQELSATVTTDC
binding [1]: no binding | binding [2]: binds
